In paper PMC2957392 one finds binding data, which are given here for one substance.

Sequences of proteins named here, by UniProt entry; tags and fusion partners are left off.
UniProt Q2YRB4: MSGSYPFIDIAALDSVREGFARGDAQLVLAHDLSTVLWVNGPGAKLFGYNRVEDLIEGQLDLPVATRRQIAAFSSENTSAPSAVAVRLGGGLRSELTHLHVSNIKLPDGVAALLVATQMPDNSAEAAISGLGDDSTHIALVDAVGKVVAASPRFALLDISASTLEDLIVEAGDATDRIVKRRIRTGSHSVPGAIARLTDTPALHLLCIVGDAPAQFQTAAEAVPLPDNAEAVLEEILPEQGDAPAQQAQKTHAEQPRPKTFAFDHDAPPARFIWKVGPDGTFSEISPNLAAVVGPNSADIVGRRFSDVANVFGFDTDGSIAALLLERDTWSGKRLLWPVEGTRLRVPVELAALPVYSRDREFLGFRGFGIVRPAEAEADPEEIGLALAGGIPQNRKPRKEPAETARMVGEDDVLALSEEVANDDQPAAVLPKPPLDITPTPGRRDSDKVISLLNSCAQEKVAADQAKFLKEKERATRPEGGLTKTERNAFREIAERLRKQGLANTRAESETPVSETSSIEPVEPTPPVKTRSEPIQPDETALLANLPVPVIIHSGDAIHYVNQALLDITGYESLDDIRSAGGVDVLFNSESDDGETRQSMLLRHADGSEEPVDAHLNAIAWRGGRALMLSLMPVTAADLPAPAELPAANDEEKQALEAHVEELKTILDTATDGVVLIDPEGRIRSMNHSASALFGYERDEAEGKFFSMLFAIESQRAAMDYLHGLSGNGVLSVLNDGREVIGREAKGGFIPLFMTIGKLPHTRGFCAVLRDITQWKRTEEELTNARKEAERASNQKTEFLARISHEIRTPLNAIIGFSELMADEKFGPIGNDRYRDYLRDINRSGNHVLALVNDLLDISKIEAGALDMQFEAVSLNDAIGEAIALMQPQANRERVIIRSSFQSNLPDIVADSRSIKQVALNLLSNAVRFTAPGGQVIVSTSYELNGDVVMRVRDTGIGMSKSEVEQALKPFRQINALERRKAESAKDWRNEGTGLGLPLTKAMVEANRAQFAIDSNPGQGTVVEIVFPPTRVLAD

These are yes or no findings as the source states them, for the method shown. Some results given as binding are weak or reduced against the parent protein; the word gives no strength.

For this experiment, the target named is Brucella abortus PdhS histidine kinase fused to the mCherry fluorescent protein (Brucella abortus) (UniProt Q2YRB4). Briefly: SEC. In general terms: In gel filtration, larger molecules generally elute earlier.

Consider “Brucella abortus PdhS histidine kinase fused to the mCherry fluorescent protein (from UniProt Q2YRB4 1-1035)”, for which the binding entry is on record as “binds”.
